According to US20240352068A1, “VIMENTIN TARGETED PEPTOIDS FOR EARLY DIAGNOSIS AND TREATMENT OF CANCER” (UNIVERSITY OF HOUSTON SYSTEM, priority 2021, published 2024):
At least one compound was matched to its structure with a doubt left. Square brackets hold non-standard residues; d marks the D form. Peptide text beside a SMILES is read from it. N(4-BzPh)Gly = O=C(O)CNc1ccc(C(=O)c2ccccc2)cc1; Gly(N-piperonyl) = O=C(O)CNCc1ccc2c(c1)OCO2; Nleu = CC(C)CNCC(=O)O; Nlys = NCCCCNCC(=O)O; Nme = COCCNCC(=O)O; Sar = CNCC(=O)O

Sequences of proteins named here, by UniProt entry; tags and fusion partners are left off.
UniProt P08670, whole entry: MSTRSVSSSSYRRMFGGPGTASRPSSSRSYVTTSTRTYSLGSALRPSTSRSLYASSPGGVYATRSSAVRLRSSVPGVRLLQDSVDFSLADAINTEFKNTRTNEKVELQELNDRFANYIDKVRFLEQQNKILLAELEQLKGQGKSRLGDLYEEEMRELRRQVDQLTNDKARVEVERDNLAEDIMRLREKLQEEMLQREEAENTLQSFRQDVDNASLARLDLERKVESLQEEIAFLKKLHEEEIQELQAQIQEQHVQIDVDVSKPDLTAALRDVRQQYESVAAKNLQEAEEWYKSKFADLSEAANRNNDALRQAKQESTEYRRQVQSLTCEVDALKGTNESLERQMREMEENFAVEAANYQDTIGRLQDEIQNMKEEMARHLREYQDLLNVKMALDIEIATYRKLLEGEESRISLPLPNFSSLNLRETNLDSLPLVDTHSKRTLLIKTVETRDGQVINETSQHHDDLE

Molecular target: vimentin (Homo sapiens, UniProt P08670)
Assay: ELISA-like binding assay to vimentin
Settings: ELISA-like binding quantification
Method: To identify minimum pharmacophore of JM3A (the most important residues directly needed for protein binding), an alanine/sarcosine scan was done.
Next, Applicant compared binding activity between L2 (D-ala) and JM3ABPD1 by employing ELISA-like binding assay in a concentration between 10 nM to 10 μM.

## COCCN(CC(=O)NC(CCCCN)C(=O)NC(CCSC)C(N)=O)C(=O)CN(Cc1ccc2c(c1)OCO2)C(=O)CN(CC(C)C)C(=O)CN(CCCCN)C(=O)CN(CCCCN)C(=O)CNCC(C)C (centres unmarked) [JM3A] (H-[Nleu][Nlys][Nlys][Nleu][Gly(N-piperonyl)][Nme]KM-NH2; configuration not given here)
  Kd: 19 µM

## COCCN(CC(=O)NC(CCCCN)C(=O)NC(CCSC)C(N)=O)C(=O)CN(C)C(=O)CN(CC(C)C)C(=O)CN(CCCCN)C(=O)CN(CCCCN)C(=O)CN(C)C(=O)CNc1ccc(C(=O)c2ccccc2)cc1 (centres unmarked) [JM3A-4,8-BP] (H-[N(4-BzPh)Gly][Sar][Nlys][Nlys][Nleu][Sar][Nme]KM-NH2; configuration not given here)
  Kd: 7 µM
